Experimental findings from paper PMC5819950, “3.3-Å resolution cryo-EM structure of human ribonucleotide reductase with substrate and allosteric regulators bound” (eLife, 2018) are described below.

These are yes or no findings as the source states them, for the method shown. Some entries that bind do so weakly or less than the wild type.

The target of test [1] is T1, human ribonucleotide reductase large subunit (alpha) (human) (UniProt P23921).
T1 sequence: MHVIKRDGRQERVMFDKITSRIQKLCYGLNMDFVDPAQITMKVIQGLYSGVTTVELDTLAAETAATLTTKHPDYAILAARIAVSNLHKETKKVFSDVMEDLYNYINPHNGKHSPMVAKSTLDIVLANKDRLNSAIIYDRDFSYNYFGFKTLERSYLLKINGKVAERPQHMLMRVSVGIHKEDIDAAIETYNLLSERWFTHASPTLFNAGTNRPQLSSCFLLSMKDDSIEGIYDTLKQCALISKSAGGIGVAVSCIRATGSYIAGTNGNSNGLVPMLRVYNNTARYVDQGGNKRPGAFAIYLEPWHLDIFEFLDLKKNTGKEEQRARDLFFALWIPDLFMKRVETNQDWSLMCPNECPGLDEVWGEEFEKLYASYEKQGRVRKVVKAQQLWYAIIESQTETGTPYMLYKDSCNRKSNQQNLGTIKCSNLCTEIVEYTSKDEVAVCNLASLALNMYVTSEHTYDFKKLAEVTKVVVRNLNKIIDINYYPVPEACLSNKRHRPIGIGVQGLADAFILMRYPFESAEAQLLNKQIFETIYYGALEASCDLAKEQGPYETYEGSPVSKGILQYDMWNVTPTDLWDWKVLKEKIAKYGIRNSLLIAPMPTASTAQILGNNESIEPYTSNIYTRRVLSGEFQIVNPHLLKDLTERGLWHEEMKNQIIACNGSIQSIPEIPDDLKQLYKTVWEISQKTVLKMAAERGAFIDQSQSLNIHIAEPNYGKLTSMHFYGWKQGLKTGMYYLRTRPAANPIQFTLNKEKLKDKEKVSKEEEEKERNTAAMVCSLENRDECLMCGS
The test can be described thus: cryo-EM structure; 15 μM α and 16.5 μM β with 100 μM dGTP and a 5-fold molar excess of ClFTP over α, 37°C, diluted 75-fold into 50 mM HEPES pH 7.6, 15 mM Mg2SO4, 150 mM NaCl, 0.5 mM ATP; ISAC averages and low-resolution 3D reconstruction; both purified.

Test [2] has as its target T1, human ribonucleotide reductase large subunit (alpha) (human). Put plainly: negative stain EM; 3 μM α and 3 μM β with 3 mM ATP, 0.05 mM dATP, 1 mM CDP in 50 mM HEPES pH 7.6, 15 mM MgCl2, 50 mM KCl, 5 mM DTT, 37°C for 2 min, diluted ~20 fold; ISAC averages; both purified.

B1: human ribonucleotide reductase β subunit (enzyme)
chain: TKAAAPGVEDEPLLRENPRRFVIFPIEYHDIWQMYKKAEASFWTAEEVDLSKDIQHWESLKPEERYFISHVLAFFAASDGIVNENLVERFSQEVQITEARCFYGFQIAMENIHSEMYSLLIDTYIKDPKEREFLFNAIETMPCVKKKADWALRWIGDKEATYGERVVAFAAVEGIFFSGSFASIFWLKKRGLMPGLTFSNELISRDEGLHCDFACLMFKHLVHKPSEERVREIIINAVRIEQEFLTEALPVKLIGMNCTLMKQYIEFVADRLMLELGFSKVFRVENPFDFMENISLEGKTNFFEKRVGEYQRMGVMSSPTENSFTLDADF
notes: human ribonucleotide reductase β (small) subunit, homodimer β2 with the diferric-tyrosyl radical cofactor; also called β2; human β
On to B1, for which the binding entry in test [1] and in test [2] was “binds weakly” in each case.
